Source: PubChem BioAssay AID1224828 (NIAID, 2016)
Screen: 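Regulators linking TLR4 signalling to p65 nuclear translocation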 (primary screen). System: mouse RAW264.7 G9 macrophage reporter cells (GFP-p65, Tnf promoter-mCherry). Reagents: siRNA pool against mouse genes, 100 nM. Timing: 2 days siRNA transfection, then 40 min LPS before fixation. Challenge: LPS (Salmonella minnesota R595) at 10 ng/ml. Measured: 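Microscopy ratio of nuclear to perinuclear-ring GFP-p65 signal, scaled to the plate median; gene score is the average of two replicate robust z-scores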. Reading the numbers: p65 translocation robust z-score: higher = more nuclear NF-kappaB p65 after LPS than the plate median; nuclear/cytoplasmic p65 ratio: higher = more nuclear NF-kappaB p65. Active means: 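Active if robust z is above 3.3 (negative regulators) or below -1.56, the Tlr4 control median (positive regulators); activity score 50 or more; control wells not called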. Calls: active = hit (p65 shift raised or lowered); inactive = no clear change.
The whole screen tested about 17,000 reagents; this is a random part of them. 762 of them (4.5%) count as active. 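Active calls include both raised and lowered p65 entry, mostly lowered; wells with fewer than 50 cells lack a z-score.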 Raw values are not corrected between plates. A reagent listed more than once was tested more than once; the source does not tell the runs apart.

| target | p65 translocation robust z-score | nuclear/cytoplasmic p65 ratio, rep 1 | nuclear/cytoplasmic p65 ratio, rep 2 | low cell count flag | Call |
| --- | --- | --- | --- | --- | --- |
| Minpp1 (multiple inositol polyphosphate histidine phosphatase 1) | 0.27 | 1.42 | 1.43 | enough cells to score | inactive |
| A430005L14Rik (RIKEN cDNA A430005L14 gene) | – | 1.27 | 1.2 | fewer than 50 cells per well; well left out of scoring | inactive |
| Iqcj (IQ motif containing J) | -0.96 | 1.39 | 1.45 | enough cells to score | inactive |
| Tle3 (transducin-like enhancer of split 3) | -0.77 | 1.38 | 1.44 | enough cells to score | inactive |
| Or6c76b (olfactory receptor family 6 subfamily C member 76B) | – | 1.51 | 1.4 | fewer than 50 cells per well; well left out of scoring | inactive |
| Wdr64 (WD repeat domain 64) | – | 1.11 | 1.11 | fewer than 50 cells per well; well left out of scoring | inactive |
| Lpcat2 (lysophosphatidylcholine acyltransferase 2) | – | 1.11 | 1.24 | fewer than 50 cells per well; well left out of scoring | inactive |
| Gabbr1 (gamma-aminobutyric acid type B receptor subunit 1) | 0.54 | 1.58 | 1.66 | enough cells to score | inactive |
| Galnt6 (polypeptide N-acetylgalactosaminyltransferase 6) | -1.19 | 1.4 | 1.34 | enough cells to score | inactive |
| Gab2 (growth factor receptor bound protein 2-associated protein 2) | 0.77 | 1.41 | 1.59 | enough cells to score | inactive |
| Prl7a2 (prolactin family 7, subfamily a, member 2) | -0.59 | 1.34 | 1.12 | enough cells to score | inactive |
| Sdk2 (sidekick cell adhesion molecule 2) | – | 1.33 | 1.38 | fewer than 50 cells per well; well left out of scoring | inactive |
| Or5t16 (olfactory receptor family 5 subfamily T member 16) | 0.81 | 1.88 | 1.61 | enough cells to score | inactive |
| B4galt2 | 1.63 | 1.88 | 2.06 | enough cells to score | inactive |
| Hoatz (HOATZ cilia and flagella associated protein) | -1.05 | 1.21 | 1.08 | enough cells to score | inactive |
| Erdr1x (erythroid differentiation regulator 1 x) | 2.16 | 1.6 | 2.04 | enough cells to score | inactive |
| Exo5 (exonuclease 5) | – | 1.31 | 1.1 | fewer than 50 cells per well; well left out of scoring | inactive |
| Casp2 (caspase 2) | -0.83 | 1.45 | 1.53 | enough cells to score | inactive |
| Ciapin1 (cytokine induced apoptosis inhibitor 1) | – | 1.28 | 1.7 | fewer than 50 cells per well; well left out of scoring | inactive |
| Zfp385a (zinc finger protein 385A) | -0.48 | 1.36 | 1.19 | enough cells to score | inactive |

Limited to “nuclear/cytoplasmic p65 ratio, rep 2” (5 entries from above):
Gabbr1 (gamma-aminobutyric acid type B receptor subunit 1)	1.66
Galnt6 (polypeptide N-acetylgalactosaminyltransferase 6)	1.34
Gab2 (growth factor receptor bound protein 2-associated protein 2)	1.59
Prl7a2 (prolactin family 7, subfamily a, member 2)	1.12
Sdk2 (sidekick cell adhesion molecule 2)	1.38

Continued.
| target | p65 translocation robust z-score | nuclear/cytoplasmic p65 ratio, rep 1 | nuclear/cytoplasmic p65 ratio, rep 2 | low cell count flag | Call |
| --- | --- | --- | --- | --- | --- |
| Thrsp (thyroid hormone responsive) | -1.6 | 1.29 | 1.29 | enough cells to score | active |
| Aadacl4fm1 (AADACL4 family member 1) | -0.95 | 1.3 | 1.41 | enough cells to score | inactive |
| Maml2 (mastermind like transcriptional coactivator 2) | 1.69 | 1.43 | 1.69 | enough cells to score | inactive |
| Dnajb4 (DnaJ heat shock protein family (Hsp40) member B4) | 0.3 | 1.47 | 1.43 | enough cells to score | inactive |
| Kcnh8 | 2.15 | 1.7 | 1.71 | enough cells to score | inactive |
| Cpne3 (copine III) | 0.31 | 1.64 | 1.31 | enough cells to score | inactive |
| Slc44a2 | 0.06 | 1.56 | 1.44 | enough cells to score | inactive |
| Atp11a (ATPase, class VI, type 11A) | 0.04 | 1.49 | 1.63 | enough cells to score | inactive |
| Rfx3 (regulatory factor X, 3 (influences HLA class II expression)) | 2.5 | 1.85 | 1.89 | enough cells to score | inactive |
| Ostn (osteocrin) | -0.26 | 1.31 | 1.29 | enough cells to score | inactive |
| Tg (thyroglobulin) | -0.28 | 1.55 | 1.42 | enough cells to score | inactive |
| Csn1s2b (casein alpha s2-like B) | -0.05 | 1.61 | 1.73 | enough cells to score | inactive |
| Klf4 (Kruppel-like transcription factor 4 (gut)) | 0.47 | 1.58 | 1.4 | enough cells to score | inactive |
| C1galt1c1 (C1GALT1-specific chaperone 1) | – | 1.65 | 1.33 | fewer than 50 cells per well; well left out of scoring | inactive |
| Nos3 (nitric oxide synthase 3, endothelial cell) | – | 1.65 | 1.51 | fewer than 50 cells per well; well left out of scoring | inactive |
| Fgf5 (fibroblast growth factor 5) | -0.41 | 1.28 | 1.41 | enough cells to score | inactive |
| Slc23a1 | 1.65 | 1.62 | 1.52 | enough cells to score | inactive |
| Akap19 (A-kinase anchoring protein 19) | – | 1.76 | 1.91 | fewer than 50 cells per well; well left out of scoring | inactive |
| Rpl6 (ribosomal protein L6) | – | 1.71 | 1.2 | fewer than 50 cells per well; well left out of scoring | inactive |
| Srp68 (signal recognition particle 68) | – | 1.26 | 1.15 | fewer than 50 cells per well; well left out of scoring | inactive |
| Slc13a2 | 0.02 | 1.47 | 1.2 | enough cells to score | inactive |
| Myo1h (myosin 1H) | -0.22 | 1.71 | 1.59 | enough cells to score | inactive |
| Snx16 (sorting nexin 16) | – | 0.99 | 1.03 | fewer than 50 cells per well; well left out of scoring | inactive |
| C130073F10Rik (RIKEN cDNA C130073F10 gene) | – | 1.26 | 1.49 | fewer than 50 cells per well; well left out of scoring | inactive |
| Clec2h (C-type lectin domain family 2, member h) | 0.2 | 1.68 | 1.76 | enough cells to score | inactive |
| Ccdc80 (coiled-coil domain containing 80) | 0.05 | 1.35 | 1.52 | enough cells to score | inactive |
| Kdsr (3-ketodihydrosphingosine reductase) | -0.46 | 1.39 | 1.3 | enough cells to score | inactive |
| Ociad1 (OCIA domain containing 1) | 0.58 | 1.73 | 1.55 | enough cells to score | inactive |
| Egfl6 (EGF-like-domain, multiple 6) | -0.14 | 1.42 | 1.38 | enough cells to score | inactive |
| Or5p57 (olfactory receptor family 5 subfamily P member 57) | – | 1.48 | 1.08 | fewer than 50 cells per well; well left out of scoring | inactive |
| H2bc18 (H2B clustered histone 18) | -1.74 | 1.35 | 1.31 | enough cells to score | active |
| Olfr908 (olfactory receptor 908) | -0.89 | 1.46 | 1.14 | enough cells to score | inactive |
| Or4c121 (olfactory receptor family 4 subfamily C member 121) | -0.38 | 1.65 | 1.48 | enough cells to score | inactive |
| Tmem79 (transmembrane protein 79) | – | 1.33 | 1.51 | fewer than 50 cells per well; well left out of scoring | inactive |
| Mbtps2 (membrane-bound transcription factor peptidase, site 2) | 0.02 | 1.48 | 1.32 | enough cells to score | inactive |
| Niban2 (niban apoptosis regulator 2) | -0.46 | 1.38 | 1.46 | enough cells to score | inactive |
| Magi3 | 1.29 | 1.47 | 1.55 | enough cells to score | inactive |
| Magi3 | – | 1.57 | 1.41 | fewer than 50 cells per well; well left out of scoring | inactive |
| Hspb3 (heat shock protein family B (small) member 3) | -0.79 | 1.25 | 1.35 | enough cells to score | inactive |
